From patent US12104201B2, “Engineered gyri-like mutein aptamers, and related methods” (CROSSLIFE TECHNOLOGIES INC., priority 2019, dated 2024)
Some entries share one result that the patent states for a list of compounds.

Assay: Oxazine 170 fluorescence quenching assay

Row | Molecule | Oxazine 170 quenching, weaker than SAV2435 WT | Oxazine 170 quenching, more potent than SAV2435 wildtype
1 | SAV2435 P106W: SAV2435 variant aptamer, SEQ ID NO:12 (protein, listed as Escherichia coli) MEYQLQQLASLTLVGIKETYENGRQAQQHIAGFWQRCYQEGVIADLQLKNNGDLAGILGLCIPELDGKMSYMIAVTGDNSADIAKYDVITLASSKYMVFEAQGAVWKAVQQKMEEVHHYIHQYQANTVKSAPFFELYQDGDTTSEKYITEIWMPVKGLEHHHHHH | 10-20 fold | –
2 | SAV2435 N27W: SAV2435 variant aptamer, SEQ ID NO:8 (protein, listed as Escherichia coli) MEYQLQQLASLTLVGIKETYENGRQAWQHIAGFWQRCYQEGVIADLQLKNNGDLAGILGLCIPELDGKMSYMIAVTGDNSADIAKYDVITLASSKYMVFEAQGAVPKAVQQKMEEVHHYIHQYQANTVKSAPFFELYQDGDTTSEKYITEIWMPVKGLEHHHHHH | – | 1.5-2 fold
3 | SAV2435 E135Q: SAV2435 variant aptamer, SEQ ID NO:14 (protein, listed as Escherichia coli) MEYQLQQLASLTLVGIKETYENGRQAQQHIAGFWQRCYQEGVIADLQLKNNGDLAGILGLCIPELDGKMSYMIAVTGDNSADIAKYDVITLASSKYMVFEAQGAWPKAVQQKMEEVHHYIHQYQANTVKSAPFFQLYQDGDTTSEKYITEIWMPVKGLEHHHHHH | – | 1.5-2 fold
